Drug screen on melanoma cell lines: cell count

From a melanoma drug combination screen (doi:10.1371/journal.pone.0140310); values rounded.

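Human melanoma cell lines in 1,536-well plates were treated with a pair of drugs for 72 h, then fixed, stained and imaged. The read-out is cell count (nuclei) in % of the DMSO control; lower values mean stronger growth inhibition or killing. Concentrations were fixed for each drug; these are the lower of two levels, a fifth of the higher. These are primary screening values without error estimates.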 Only some of the drugs and lines screened are listed, without regard to their results. An entry leaves out what has no value listed here.

Every entry is a combination with vorinostat at 0.08 µM: O=C(CCCCCCC(=O)Nc1ccccc1)NO

Drug key:
FH535: Cc1cc([N+](=O)[O-])ccc1NS(=O)(=O)c1cc(Cl)ccc1Cl at 1 µM
KU-55933: O=c1cc(-c2cccc3c2Sc2ccccc2S3)oc(N2CCOCC2)c1 at 1 µM
dovitinib: CN1CCN(c2ccc3nc(-c4c(N)c5c(F)cccc5[nH]c4=O)[nH]c3c2)CC1 at 0.1 µM
GW9662: O=C(Nc1ccccc1)c1cc([N+](=O)[O-])ccc1Cl at 2 µM
KU-0063794: COc1ccc(-c2ccc3c(N4CCOCC4)nc(N4C[C@@H](C)O[C@@H](C)C4)nc3n2)cc1CO at 0.02 µM
selumetinib: Cn1cnc2c(F)c(Nc3ccc(Br)cc3Cl)c(C(=O)NOCCO)cc21 at 0.015 µM
GW441756: Cn1cc(/C=C2\C(=O)Nc3cccnc32)c2ccccc21 at 0.4 µM
AS-252424: O=C1NC(=O)/C(=C/c2ccc(-c3ccc(F)cc3O)o2)S1 at 1 µM
bortezomib: CC(C)C[C@H](NC(=O)[C@H](Cc1ccccc1)NC(=O)c1cnccn1)B(O)O at 0.001 µM
MK-1775: C=CCn1c(=O)c2cnc(Nc3ccc(N4CCN(C)CC4)cc3)nc2n1-c1cccc(C(C)(C)O)n1 at 0.02 µM
OSI-906: C[C@]1(O)C[C@@H](c2nc(-c3ccc4ccc(-c5ccccc5)nc4c3)c3c(N)nccn32)C1 at 0.4 µM
pioglitazone: CCc1ccc(CCOc2ccc(CC3SC(=O)NC3=O)cc2)nc1 (stereo not given) at 2 µM
NVP-BEZ235: Cn1c(=O)n(-c2ccc(C(C)(C)C#N)cc2)c2c3cc(-c4cnc5ccccc5c4)ccc3ncc21 at 0.004 µM
embelin: CCCCCCCCCCCC1=C(O)C(=O)C=C(O)C1=O at 1.2 µM
JZL184: O=C(Oc1ccc([N+](=O)[O-])cc1)N1CCC(C(O)(c2ccc3c(c2)OCO3)c2ccc3c(c2)OCO3)CC1 at 1 µM
TCS401: O=C(O)C(=O)Nc1sc2c(c1C(=O)O)CCNC2 at 1.67 µM
GW2580: COc1ccc(COc2ccc(Cc3cnc(N)nc3N)cc2OC)cc1 at 1 µM
XAV939: Oc1nc(-c2ccc(C(F)(F)F)cc2)nc2c1CSCC2 at 2 µM

GW441756 gave LOX IMVI: 73.5; 501mel: 84.9; COLO 800: 99.3; A101D: 106.
pioglitazone gave LOX IMVI: 63.6; 501mel: 76.5; COLO 800: 151; A101D: 109.
FH535 gave LOX IMVI: 90.4; 501mel: 94.7; COLO 800: 79.1; A101D: 89.2.
KU-0063794 gave LOX IMVI: 65.4; 501mel: 90.8; COLO 800: 89.6; A101D: 97.5.
JZL184 gave LOX IMVI: 94.3; COLO 800: 50.4; A101D: 107.
GW9662 gave LOX IMVI: 95.6; 501mel: 93.8; COLO 800: 88.2; A101D: 101.
KU-55933 gave LOX IMVI: 134; 501mel: 90.3; COLO 800: 141; A101D: 102.
dovitinib gave LOX IMVI: 98.8; COLO 800: 80.1; A101D: 94.0.
AS-252424 gave LOX IMVI: 69.1; 501mel: 97.8; COLO 800: 120; A101D: 100.
bortezomib gave LOX IMVI: 72.2; COLO 800: 73.7; A101D: 19.0.
selumetinib gave LOX IMVI: 92.9; COLO 800: 72.9; A101D: 95.0.
TCS401 gave LOX IMVI: 76.5; 501mel: 74.2; COLO 800: 118; A101D: 105.
embelin gave LOX IMVI: 103; 501mel: 91.9; COLO 800: 131; A101D: 106.
XAV939 gave LOX IMVI: 89.3; 501mel: 97.5; COLO 800: 91.6; A101D: 98.0.
NVP-BEZ235 gave LOX IMVI: 79.5; COLO 800: 83.5; A101D: 97.9.
OSI-906 gave LOX IMVI: 52.2; COLO 800: 70.7; A101D: 104.
MK-1775 gave LOX IMVI: 220; COLO 800: 80.0; A101D: 105.
GW2580 gave LOX IMVI: 84.2; 501mel: 124; COLO 800: 108; A101D: 119.

Repeated from the top, 2 entries:

{"second drug": "GW441756", "LOX IMVI": 73.5, "501mel": 84.9, "COLO 800": 99.3, "A101D": 106}
{"second drug": "pioglitazone", "LOX IMVI": 63.6, "501mel": 76.5, "COLO 800": 151, "A101D": 109}